This is one part of the list.
Legend:
Test in all cases: glycan array binding signal (z-score within array); higher = stronger binding
Conditions in all cases: glycan notation: IUPAC condensed, linker removed
Fuc(a1-2)Gal = target: Fuc(a1-2)Gal
How it was run: (§1)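 Negative Z-scores can be read as non-binding. The Z-score is calculated within each array and then averaged across arrays of one protein sequence at different concentrations or buffers and across linkers. Arrays, 3228 in all, were curated from the Consortium for Functional Glycomics database and kept only where the protein sequence was available.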

Fuc(a1-2)Gal(b1-3)GalNAc = target: Fuc(a1-2)Gal(b1-3)GalNAc
How it was run: as §1

[1] = target: Fuc(a1-2)Gal(b1-3)GalNAc(a1-3)[Fuc(a1-2)]Gal(b1-4)Glc
How it was run: as §1

[2] = target: Fuc(a1-2)Gal(b1-3)GalNAc(a1-3)[Fuc(a1-2)]Gal(b1-4)GlcNAc
How it was run: as §1

[3] = target: Fuc(a1-2)Gal(b1-3)GalNAc(b1-3)Gal
How it was run: as §1

[4] = target: Fuc(a1-2)Gal(b1-3)GalNAc(b1-3)Gal(a1-4)Gal(b1-4)Glc
How it was run: as §1

[5] = target: Fuc(a1-2)Gal(b1-3)GalNAc(b1-4)[Neu5Ac(a2-3)]Gal(b1-4)Glc
How it was run: as §1

Fuc(a1-2)Gal(b1-3)GlcNAc = target: Fuc(a1-2)Gal(b1-3)GlcNAc
How it was run: as §1

[6] = target: Fuc(a1-2)Gal(b1-3)GlcNAc(b1-2)Man(a1-3)[Fuc(a1-2)Gal(b1-3)GlcNAc(b1-2)Man(a1-6)]Man(b1-4)GlcNAc(b1-4)GlcNAc
How it was run: as §1

[7] = target: Fuc(a1-2)Gal(b1-3)GlcNAc(b1-2)Man(a1-3)[Fuc(a1-2)Gal(b1-3)GlcNAc(b1-2)Man(a1-6)]Man(b1-4)GlcNAc(b1-4)[Fuc(a1-6)]GlcNAc
How it was run: as §1

[8] = target: Fuc(a1-2)Gal(b1-3)GlcNAc(b1-3)Gal(b1-4)Glc
How it was run: as §1

[9] = target: Fuc(a1-2)Gal(b1-3)GlcNAc(b1-3)GalNAc
How it was run: as §1

[10] = target: Fuc(a1-2)Gal(b1-3)GlcNAc(b1-3)[Fuc(a1-2)Gal(b1-3)GlcNAc(b1-6)]GalNAc
How it was run: as §1

[11] = target: Fuc(a1-2)Gal(b1-3)GlcNAc(b1-3)[Gal(b1-4)GlcNAc(b1-6)]Gal(b1-4)Glc
How it was run: as §1

[12] = target: Fuc(a1-2)Gal(b1-3)GlcNAc(b1-3)[Neu5Ac(a2-6)Gal(b1-4)GlcNAc(b1-6)]Gal(b1-4)Glc
How it was run: as §1

[13] = target: Fuc(a1-2)Gal(b1-3)GlcNAc6S
How it was run: as §1

[14] = target: Fuc(a1-2)Gal(b1-3)[Fuc(a1-4)]GlcNAc
How it was run: as §1

[15] = target: Fuc(a1-2)Gal(b1-3)[Fuc(a1-4)]GlcNAc(b1-2)Man(a1-3)[Fuc(a1-2)Gal(b1-3)[Fuc(a1-4)]GlcNAc(b1-2)Man(a1-3)]Man(b1-4)GlcNAc(b1-4)GlcNAc
How it was run: as §1

[16] = target: Fuc(a1-2)Gal(b1-3)[Fuc(a1-4)]GlcNAc(b1-2)Man(a1-3)[Fuc(a1-2)Gal(b1-3)[Fuc(a1-4)]GlcNAc(b1-2)Man(a1-6)]Man(b1-4)GlcNAc(b1-4)[Fuc(a1-6)]GlcNAc(b1-4)[Fuc(a1-6)]GlcNAc
How it was run: as §1

[17] = target: Fuc(a1-2)Gal(b1-3)[Fuc(a1-4)]GlcNAc(b1-3)[Fuc(a1-3)[Gal(b1-4)]GlcNAc(b1-6)]Gal(b1-4)Glc
How it was run: as §1

[18] = target: Fuc(a1-2)Gal(b1-3)[Fuc(a1-4)]GlcNAc(b1-3)[Gal(b1-4)GlcNAc(b1-6)]Gal(b1-4)Glc
How it was run: as §1

[19] = target: Fuc(a1-2)Gal(b1-4)Fuc(a1-3)]GlcNAc(b1-2)Man(a1-3)[Fuc(a1-2)Gal(b1-4)[Fuc(a1-3)]GlcNAc(b1-2)Man(a1-6)]Man(b1-4)GlcNAc(b1-4)GlcNAc
How it was run: as §1

Fuc(a1-2)Gal(b1-4)Glc = target: Fuc(a1-2)Gal(b1-4)Glc
How it was run: as §1

Fuc(a1-2)Gal(b1-4)Glc6S = target: Fuc(a1-2)Gal(b1-4)Glc6S
How it was run: as §1

Fuc(a1-2)Gal(b1-4)GlcNAc = target: Fuc(a1-2)Gal(b1-4)GlcNAc
How it was run: as §1

[20] = target: Fuc(a1-2)Gal(b1-4)GlcNAc(b1-2)Man
How it was run: as §1

[21] = target: Fuc(a1-2)Gal(b1-4)GlcNAc(b1-2)Man(a1-3)[Fuc(a1-2)Gal(b1-4)GlcNAc(b1-2)Man(a1-6)]Man(b1-4)GlcNAc(b1-4)GlcNAc
How it was run: as §1

[22] = target: Fuc(a1-2)Gal(b1-4)GlcNAc(b1-2)Man(a1-3)[Fuc(a1-2)Gal(b1-4)GlcNAc(b1-2)Man(a1-6)]Man(b1-4)GlcNAc(b1-4)[Fuc(a1-6)]GlcNAc
How it was run: as §1

[23] = target: Fuc(a1-2)Gal(b1-4)GlcNAc(b1-2)[Fuc(a1-2)Gal(b1-4)GlcNAc(b1-4)]Man(a1-3)[Fuc(a1-2)Gal(b1-4)GlcNAc(b1-2)Man(a1-6)]Man(b1-4)GlcNAc(b1-4)GlcNAc
How it was run: as §1

[24] = target: Fuc(a1-2)Gal(b1-4)GlcNAc(b1-3)Gal(b1-4)GlcNAc
How it was run: as §1

[25] = target: Fuc(a1-2)Gal(b1-4)GlcNAc(b1-3)Gal(b1-4)GlcNAc(b1-2)Man(a1-3)[Fuc(a1-2)Gal(b1-4)GlcNAc(b1-3)Gal(b1-4)GlcNAc(b1-2)Man(a1-6)]Man(b1-4)GlcNAc(b1-4)GlcNAc
How it was run: as §1

[26] = target: Fuc(a1-2)Gal(b1-4)GlcNAc(b1-3)Gal(b1-4)GlcNAc(b1-3)Gal(b1-4)GlcNAc
How it was run: as §1

[27] = target: Fuc(a1-2)Gal(b1-4)GlcNAc(b1-3)GalNAc
How it was run: as §1

[28] = target: Fuc(a1-2)Gal(b1-4)GlcNAc(b1-3)[Fuc(a1-2)Gal(b1-4)GlcNAc(b1-6)]GalNAc
How it was run: as §1

[29] = target: Fuc(a1-2)Gal(b1-4)GlcNAc(b1-3)[Fuc(a1-3)[Gal(b1-4)]GlcNAc(b1-6)]Gal(b1-4)Glc
How it was run: as §1

[30] = target: Fuc(a1-2)Gal(b1-4)GlcNAc(b1-6)GalNAc
How it was run: as §1

[31] = target: Fuc(a1-2)Gal(b1-4)GlcNAc6S
How it was run: as §1

[32] = target: Fuc(a1-2)Gal(b1-4)[Fuc(a1-3)]GlcNAc
How it was run: as §1

[33] = target: Fuc(a1-2)Gal(b1-4)[Fuc(a1-3)]GlcNAc(b1-2)Man(a1-3)[Fuc(a1-2)Gal(b1-4)[Fuc(a1-3)]GlcNAc(b1-2)Man(a1-6)]Man(b1-4)GlcNAc(b1-4)[Fuc(a1-6)]GlcNAc
How it was run: as §1

[34] = target: Fuc(a1-2)Gal(b1-4)[Fuc(a1-3)]GlcNAc(b1-2)[Fuc(a1-2)Gal(b1-4)[Fuc(a1-3)]GlcNAc(b1-4)]Man(a1-3)[Fuc(a1-2)Gal(b1-4)[Fuc(a1-3)]GlcNAc(b1-2)Man(a1-6)]Man(b1-4)GlcNAc(b1-4)GlcNAc
How it was run: as §1

[35] = target: Fuc(a1-2)Gal(b1-4)[Fuc(a1-3)]GlcNAc(b1-3)Gal(b1-4)[Fuc(a1-3)]GlcNAc
How it was run: as §1

[36] = target: Fuc(a1-2)Gal(b1-4)[Fuc(a1-3)]GlcNAc(b1-3)Gal(b1-4)[Fuc(a1-3)]GlcNAc(b1-3)Gal(b1-4)[Fuc(a1-3)]GlcNAc
How it was run: as §1

[37] = target: Fuc(a1-2)Gal(b1-4)[Fuc(a1-3)]GlcNAc(b1-3)GalNAc
How it was run: as §1

[38] = target: Fuc(a1-2)Gal(b1-4)[Fuc(a1-3)]GlcNAc(b1-3)[Neu5Ac(a2-6)Gal(b1-4)GlcNAc(b1-6)]Gal(b1-4)Glc
How it was run: as §1

[39] = target: Fuc(a1-2)Gal3S(b1-4)GlcNAc
How it was run: as §1

B1: Erv46-EDTA (Saccharomyces cerevisiae), P39727 (protein)
chain: MKFLVNVALVFMVVYISYIYAAAPEHHHHHHDYDIPTTENLYFQGAMDSVVTRPQLVVDRDRHAKLELNMDVTFPSMPCDLVNLDIMDDSGEMQLDILDAGFTMSRLNSEGRPVGDATELHVGGNGDGTAPVNNDPNYCGPCYGAKDQSQNENLAQEEKVCCQDCDAVRSAYLEAGWAFFDGKNIEQCEREGYVSKINEHLNEGCRIKGSAQINRIQGNLHFAPGKPYQNAYGHFHDTSLYDKTSNLNFNHIINHLSFGKPIQSHSKLLGNDKRHGGAVVATSPLDGRQVFPDRNTHFHQFSYFAKIVPTRYEYLDNVVIETAQFSATFHSRPLAGGRDKDHPNTLHVRGGIPGMFVFFEMSPLKVINKEQ
glycan array binding signal (z-score) (Fuc(a1-2)Gal): -0.338 | glycan array binding signal (z-score) (Fuc(a1-2)Gal(b1-3)GalNAc): -0.294 | glycan array binding signal (z-score) [1]: 0.819 | glycan array binding signal (z-score) [2]: -0.011 | glycan array binding signal (z-score) [3]: -0.08 | glycan array binding signal (z-score) [4]: -0.455 | glycan array binding signal (z-score) [5]: -0.446 | glycan array binding signal (z-score) (Fuc(a1-2)Gal(b1-3)GlcNAc): -0.279 | glycan array binding signal (z-score) [6]: 0.589 | glycan array binding signal (z-score) [7]: 0.115 | glycan array binding signal (z-score) [8]: -0.225 | glycan array binding signal (z-score) [9]: -0.589 | glycan array binding signal (z-score) [10]: 0.198 | glycan array binding signal (z-score) [11]: -0.078 | glycan array binding signal (z-score) [12]: -0.118 | glycan array binding signal (z-score) [13]: -0.083 | glycan array binding signal (z-score) [14]: 0.032 | glycan array binding signal (z-score) [15]: 0.467 | glycan array binding signal (z-score) [16]: 2.15 | glycan array binding signal (z-score) [17]: -0.246 | glycan array binding signal (z-score) [18]: -0.191 | glycan array binding signal (z-score) [19]: 3.11 | glycan array binding signal (z-score) (Fuc(a1-2)Gal(b1-4)Glc): -0.572 | glycan array binding signal (z-score) (Fuc(a1-2)Gal(b1-4)Glc6S): 0.488 | glycan array binding signal (z-score) (Fuc(a1-2)Gal(b1-4)GlcNAc): -0.508 | glycan array binding signal (z-score) [20]: -0.301 | glycan array binding signal (z-score) [21]: 1.11 | glycan array binding signal (z-score) [22]: 0.705 | glycan array binding signal (z-score) [23]: 1.06 | glycan array binding signal (z-score) [24]: -0.056 | glycan array binding signal (z-score) [25]: 1.24 | glycan array binding signal (z-score) [26]: -0.781 | glycan array binding signal (z-score) [27]: -0.253 | glycan array binding signal (z-score) [28]: -0.087 | glycan array binding signal (z-score) [29]: 0.87 | glycan array binding signal (z-score) [30]: -0.785 | glycan array binding signal (z-score) [31]: -0.349 | glycan array binding signal (z-score) [32]: 0.104 | glycan array binding signal (z-score) [33]: 2.29 | glycan array binding signal (z-score) [34]: 2.34 | glycan array binding signal (z-score) [35]: 0.035 | glycan array binding signal (z-score) [36]: -0.775 | glycan array binding signal (z-score) [37]: 2.13 | glycan array binding signal (z-score) [38]: -0.485 | glycan array binding signal (z-score) [39]: -0.212

— the supplement of paper PMC8728848
